# Measured values: the supplement of paper PMC10849652
# Amino acid sequences for entries named in this document (tags omitted). A change or cut given only in a name is not applied to a line headed by its entry.
# UniProt Q96L93: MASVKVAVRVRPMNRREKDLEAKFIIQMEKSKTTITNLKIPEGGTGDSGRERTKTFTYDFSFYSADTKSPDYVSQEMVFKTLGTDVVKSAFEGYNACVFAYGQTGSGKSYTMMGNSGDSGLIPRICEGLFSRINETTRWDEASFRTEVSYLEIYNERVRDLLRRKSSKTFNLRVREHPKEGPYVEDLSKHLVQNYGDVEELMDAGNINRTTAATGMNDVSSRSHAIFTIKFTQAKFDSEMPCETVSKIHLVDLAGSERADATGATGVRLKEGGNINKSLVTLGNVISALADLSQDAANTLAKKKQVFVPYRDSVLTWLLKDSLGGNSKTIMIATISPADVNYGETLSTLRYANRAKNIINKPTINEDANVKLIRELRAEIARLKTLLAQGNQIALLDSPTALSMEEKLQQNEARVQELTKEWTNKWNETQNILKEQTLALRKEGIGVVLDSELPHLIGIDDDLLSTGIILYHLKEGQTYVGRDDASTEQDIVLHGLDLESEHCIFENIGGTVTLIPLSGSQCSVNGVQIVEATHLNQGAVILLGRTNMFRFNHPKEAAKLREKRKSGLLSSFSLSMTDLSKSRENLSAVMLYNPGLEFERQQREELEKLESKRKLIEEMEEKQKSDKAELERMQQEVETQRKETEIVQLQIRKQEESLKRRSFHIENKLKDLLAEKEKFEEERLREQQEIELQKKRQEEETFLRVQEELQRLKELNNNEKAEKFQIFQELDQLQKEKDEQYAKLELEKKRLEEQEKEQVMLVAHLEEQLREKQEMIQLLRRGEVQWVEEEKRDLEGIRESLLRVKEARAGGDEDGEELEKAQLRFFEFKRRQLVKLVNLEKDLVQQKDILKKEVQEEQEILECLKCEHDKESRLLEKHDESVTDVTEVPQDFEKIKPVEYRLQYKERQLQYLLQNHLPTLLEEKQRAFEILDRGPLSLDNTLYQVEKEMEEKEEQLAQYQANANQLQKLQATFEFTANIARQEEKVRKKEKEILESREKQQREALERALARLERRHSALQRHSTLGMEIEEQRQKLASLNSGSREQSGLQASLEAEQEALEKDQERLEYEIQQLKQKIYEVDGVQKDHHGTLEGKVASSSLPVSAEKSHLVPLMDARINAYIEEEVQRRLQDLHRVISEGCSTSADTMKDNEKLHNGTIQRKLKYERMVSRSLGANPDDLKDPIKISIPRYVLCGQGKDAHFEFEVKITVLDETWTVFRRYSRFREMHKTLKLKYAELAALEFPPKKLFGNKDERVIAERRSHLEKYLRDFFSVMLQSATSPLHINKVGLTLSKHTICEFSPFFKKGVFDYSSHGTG
# UniProt P50053: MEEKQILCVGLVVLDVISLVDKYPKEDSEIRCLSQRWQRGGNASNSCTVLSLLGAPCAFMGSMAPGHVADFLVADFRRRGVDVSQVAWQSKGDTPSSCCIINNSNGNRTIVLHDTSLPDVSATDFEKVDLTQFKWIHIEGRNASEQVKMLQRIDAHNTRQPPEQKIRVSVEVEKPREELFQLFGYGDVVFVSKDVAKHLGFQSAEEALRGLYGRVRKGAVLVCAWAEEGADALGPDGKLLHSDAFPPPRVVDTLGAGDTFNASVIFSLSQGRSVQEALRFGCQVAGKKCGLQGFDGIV
# UniProt Q9H910: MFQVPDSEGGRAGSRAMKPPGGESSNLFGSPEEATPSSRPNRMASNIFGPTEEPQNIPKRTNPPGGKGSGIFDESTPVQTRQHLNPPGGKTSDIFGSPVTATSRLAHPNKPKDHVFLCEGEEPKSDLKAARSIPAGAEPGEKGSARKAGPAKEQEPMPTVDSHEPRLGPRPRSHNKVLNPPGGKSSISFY
# UniProt Q8N6L1: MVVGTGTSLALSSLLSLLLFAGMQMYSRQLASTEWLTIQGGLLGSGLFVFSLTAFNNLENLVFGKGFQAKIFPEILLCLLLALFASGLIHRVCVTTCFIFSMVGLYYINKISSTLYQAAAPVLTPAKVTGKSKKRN
# UniProt Q8N4N3: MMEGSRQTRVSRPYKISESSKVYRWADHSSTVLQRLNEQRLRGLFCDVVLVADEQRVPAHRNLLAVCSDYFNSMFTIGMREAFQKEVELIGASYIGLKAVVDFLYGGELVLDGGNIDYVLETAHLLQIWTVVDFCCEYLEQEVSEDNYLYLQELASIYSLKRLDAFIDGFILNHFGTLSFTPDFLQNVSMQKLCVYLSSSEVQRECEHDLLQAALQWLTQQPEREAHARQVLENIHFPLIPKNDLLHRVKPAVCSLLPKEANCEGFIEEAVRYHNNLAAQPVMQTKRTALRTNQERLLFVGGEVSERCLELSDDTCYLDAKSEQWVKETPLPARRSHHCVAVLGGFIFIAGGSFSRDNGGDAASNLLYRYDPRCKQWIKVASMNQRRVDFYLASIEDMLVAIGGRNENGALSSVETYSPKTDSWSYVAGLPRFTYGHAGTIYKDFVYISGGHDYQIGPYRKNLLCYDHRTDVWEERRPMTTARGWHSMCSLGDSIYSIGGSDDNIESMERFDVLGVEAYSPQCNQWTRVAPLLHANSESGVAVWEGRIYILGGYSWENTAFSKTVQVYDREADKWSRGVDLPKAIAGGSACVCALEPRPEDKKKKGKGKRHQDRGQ
# UniProt Q9NSK0: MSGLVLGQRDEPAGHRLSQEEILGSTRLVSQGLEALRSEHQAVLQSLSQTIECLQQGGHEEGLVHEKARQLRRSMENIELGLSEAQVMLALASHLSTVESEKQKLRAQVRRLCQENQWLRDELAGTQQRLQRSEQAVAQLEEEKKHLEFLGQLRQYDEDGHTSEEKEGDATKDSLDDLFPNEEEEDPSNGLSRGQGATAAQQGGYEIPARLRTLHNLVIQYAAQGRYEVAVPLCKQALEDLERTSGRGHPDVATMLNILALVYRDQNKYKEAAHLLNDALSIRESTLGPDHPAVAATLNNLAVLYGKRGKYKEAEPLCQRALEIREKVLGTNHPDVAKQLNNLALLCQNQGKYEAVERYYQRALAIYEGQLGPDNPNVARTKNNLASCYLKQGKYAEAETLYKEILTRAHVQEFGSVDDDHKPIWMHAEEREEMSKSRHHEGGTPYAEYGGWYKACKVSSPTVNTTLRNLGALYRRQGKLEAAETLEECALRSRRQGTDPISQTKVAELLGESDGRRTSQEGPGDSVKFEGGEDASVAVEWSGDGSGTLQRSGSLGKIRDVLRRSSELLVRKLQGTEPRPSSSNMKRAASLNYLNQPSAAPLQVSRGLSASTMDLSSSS
# UniProt Q9Y496, whole entry, looked up: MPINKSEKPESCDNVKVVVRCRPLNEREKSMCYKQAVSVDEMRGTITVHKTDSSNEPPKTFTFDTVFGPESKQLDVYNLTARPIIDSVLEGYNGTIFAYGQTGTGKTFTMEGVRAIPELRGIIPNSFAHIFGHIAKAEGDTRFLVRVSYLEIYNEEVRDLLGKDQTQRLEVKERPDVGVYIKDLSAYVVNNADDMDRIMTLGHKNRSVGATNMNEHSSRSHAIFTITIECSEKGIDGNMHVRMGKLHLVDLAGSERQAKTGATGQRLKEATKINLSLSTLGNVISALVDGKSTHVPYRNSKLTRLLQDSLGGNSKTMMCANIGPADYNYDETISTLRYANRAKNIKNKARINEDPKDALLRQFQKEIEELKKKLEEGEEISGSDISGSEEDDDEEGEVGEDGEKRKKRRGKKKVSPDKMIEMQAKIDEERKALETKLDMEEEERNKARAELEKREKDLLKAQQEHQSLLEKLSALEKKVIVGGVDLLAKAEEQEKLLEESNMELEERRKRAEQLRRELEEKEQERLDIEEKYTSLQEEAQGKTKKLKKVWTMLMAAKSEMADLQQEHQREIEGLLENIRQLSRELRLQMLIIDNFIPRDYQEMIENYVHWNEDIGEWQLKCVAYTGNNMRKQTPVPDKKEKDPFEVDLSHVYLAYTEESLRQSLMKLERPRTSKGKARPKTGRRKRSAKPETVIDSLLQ
# UniProt O76095: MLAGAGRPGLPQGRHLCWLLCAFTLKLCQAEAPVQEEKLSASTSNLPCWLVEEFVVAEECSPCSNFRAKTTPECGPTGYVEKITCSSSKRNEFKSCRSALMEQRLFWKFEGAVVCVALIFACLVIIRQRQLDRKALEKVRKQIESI
# UniProt Q13351: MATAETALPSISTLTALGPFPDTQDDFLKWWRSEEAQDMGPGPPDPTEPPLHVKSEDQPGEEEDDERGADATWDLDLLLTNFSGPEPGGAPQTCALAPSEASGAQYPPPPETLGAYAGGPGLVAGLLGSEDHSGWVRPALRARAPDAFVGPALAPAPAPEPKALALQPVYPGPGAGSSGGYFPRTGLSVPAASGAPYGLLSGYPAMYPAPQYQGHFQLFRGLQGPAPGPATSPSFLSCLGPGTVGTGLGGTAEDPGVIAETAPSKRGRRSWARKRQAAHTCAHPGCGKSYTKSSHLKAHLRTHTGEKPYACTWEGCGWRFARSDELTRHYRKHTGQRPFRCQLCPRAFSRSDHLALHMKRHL
# UniProt Q9NVX7: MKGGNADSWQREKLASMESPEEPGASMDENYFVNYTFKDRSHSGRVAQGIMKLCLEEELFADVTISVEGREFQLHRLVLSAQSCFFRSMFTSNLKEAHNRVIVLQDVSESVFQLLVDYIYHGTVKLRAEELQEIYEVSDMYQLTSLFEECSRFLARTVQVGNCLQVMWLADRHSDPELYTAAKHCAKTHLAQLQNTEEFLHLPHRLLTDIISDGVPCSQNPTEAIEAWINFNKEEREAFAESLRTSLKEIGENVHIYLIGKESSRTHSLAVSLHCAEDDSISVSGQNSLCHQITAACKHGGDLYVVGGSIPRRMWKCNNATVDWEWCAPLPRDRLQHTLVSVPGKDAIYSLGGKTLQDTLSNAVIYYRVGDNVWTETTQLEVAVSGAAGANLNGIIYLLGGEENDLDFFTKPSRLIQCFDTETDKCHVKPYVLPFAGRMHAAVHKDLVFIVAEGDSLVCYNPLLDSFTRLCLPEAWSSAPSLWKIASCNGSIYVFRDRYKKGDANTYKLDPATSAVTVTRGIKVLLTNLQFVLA
# UniProt Q13601: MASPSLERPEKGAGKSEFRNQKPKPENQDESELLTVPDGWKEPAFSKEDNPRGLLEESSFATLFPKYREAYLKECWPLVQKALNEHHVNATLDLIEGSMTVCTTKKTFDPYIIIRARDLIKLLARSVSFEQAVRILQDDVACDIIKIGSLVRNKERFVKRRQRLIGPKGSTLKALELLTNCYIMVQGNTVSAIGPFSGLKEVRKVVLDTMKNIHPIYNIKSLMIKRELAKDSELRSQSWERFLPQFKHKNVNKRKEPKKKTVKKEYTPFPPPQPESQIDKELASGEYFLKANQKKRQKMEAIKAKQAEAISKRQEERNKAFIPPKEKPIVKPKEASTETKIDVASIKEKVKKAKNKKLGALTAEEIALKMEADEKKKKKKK
# UniProt P24390: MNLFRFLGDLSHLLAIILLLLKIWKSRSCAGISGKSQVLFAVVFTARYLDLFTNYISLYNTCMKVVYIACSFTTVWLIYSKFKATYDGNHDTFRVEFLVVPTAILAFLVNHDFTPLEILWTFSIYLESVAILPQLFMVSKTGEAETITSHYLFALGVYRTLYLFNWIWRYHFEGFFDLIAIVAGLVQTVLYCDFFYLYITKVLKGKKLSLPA
# UniProt Q07866: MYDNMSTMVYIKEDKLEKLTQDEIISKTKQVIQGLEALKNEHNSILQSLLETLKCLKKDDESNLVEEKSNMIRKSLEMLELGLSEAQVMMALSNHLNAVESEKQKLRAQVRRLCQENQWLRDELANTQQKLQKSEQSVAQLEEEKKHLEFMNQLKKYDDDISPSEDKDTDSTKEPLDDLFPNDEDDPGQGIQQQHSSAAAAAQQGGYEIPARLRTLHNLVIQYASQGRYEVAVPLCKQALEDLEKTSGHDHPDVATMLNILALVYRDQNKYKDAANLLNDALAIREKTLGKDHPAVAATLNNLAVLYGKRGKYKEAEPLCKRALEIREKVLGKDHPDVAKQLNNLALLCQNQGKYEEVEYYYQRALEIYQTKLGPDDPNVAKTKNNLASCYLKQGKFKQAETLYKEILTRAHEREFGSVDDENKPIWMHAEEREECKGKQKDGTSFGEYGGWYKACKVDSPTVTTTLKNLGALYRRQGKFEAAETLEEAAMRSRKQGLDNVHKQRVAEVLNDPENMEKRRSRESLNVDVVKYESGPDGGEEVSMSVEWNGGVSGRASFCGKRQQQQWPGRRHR
# UniProt Q9BQ90: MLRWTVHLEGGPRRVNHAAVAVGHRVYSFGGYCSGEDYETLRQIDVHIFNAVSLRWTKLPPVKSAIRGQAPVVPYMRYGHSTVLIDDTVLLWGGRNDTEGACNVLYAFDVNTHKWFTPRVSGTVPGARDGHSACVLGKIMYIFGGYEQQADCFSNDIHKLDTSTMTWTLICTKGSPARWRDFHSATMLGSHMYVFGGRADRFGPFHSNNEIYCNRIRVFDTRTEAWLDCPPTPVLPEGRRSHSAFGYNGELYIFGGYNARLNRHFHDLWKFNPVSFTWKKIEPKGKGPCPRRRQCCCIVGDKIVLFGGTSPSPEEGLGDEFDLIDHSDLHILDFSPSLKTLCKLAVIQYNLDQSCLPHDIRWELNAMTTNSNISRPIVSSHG
# The other results are listed elsewhere or left out.
# Compound: c1cn2cc(-c3ccc4cn[nH]c4c3)nc(Nc3ccc(N4CCOCC4)cc3)c2n1 [entospletinib]
# Test: log2 fold change, soluble protein after heating vs DMSO (PISA); higher = thermal stabilisation; K562 cells, 10 uM, 30 min; active = over 0.2 and 3.5 SD of the protein, either way, in both replicates (recomputed)
# How it was run: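 Thermal stability values are relative to control samples and come from duplicates. They are expressed as log2 fold changes. For measurement, K562 cells (2×10^6 cells/mL) received 10 μM compound for 30 min, and aliquots were heated for 3 min over 48°C-58°C, pooled, and extracted at 4°C in PBS with 0.5% NP-40. Soluble protein, the supernatant after 21,000xg for 90 min, was quantified by TMTpro 16plex LC-MS/MS with equalised channel sums.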
row,Target,log2 fold change
1,KIF16B isoform 2 (UniProt Q96L93),inactive: 0.067
2,KHK isoform 2 (UniProt P50053),inactive: -0.039
3,JPT2 isoform 3 (UniProt Q9H910),inactive: 0.025
4,KALRN (UniProt O60229),inactive: -0.139
5,KARS1 (UniProt Q15046),inactive: 0.119
6,KRTCAP2 isoform 2 (UniProt Q8N6L1),inactive: -0.011
7,KIAA0319L (UniProt Q8IZA0),inactive: -0.001
8,KLHL36 (UniProt Q8N4N3),inactive: 0.07
9,KLC4 isoform 3 (UniProt Q9NSK0),inactive: -0.043
10,KIF26A (UniProt Q9ULI4),inactive: 0.07
11,JPT2 isoform 2 (UniProt Q9H910),inactive: 0.091
12,KIF3A (UniProt Q9Y496),active: 0.491
13,KIF23 (UniProt Q02241),inactive: -0.041
14,JTB (UniProt O76095),inactive: -0.037
15,KIDINS220 (UniProt Q9ULH0),inactive: 0.013
16,KLF1 (UniProt Q13351),inactive: 0.098
17,KBTBD4 isoform 2 (UniProt Q9NVX7),inactive: -0.08
18,KRR1 (UniProt Q13601),inactive: 0.105
19,KDELR1 (UniProt P24390),inactive: 0.072
20,KLC1 isoform 6 (UniProt Q07866),inactive: -0.025
21,KLHDC3 (UniProt Q9BQ90),inactive: -0.063
22,KDM2A (UniProt Q9Y2K7),inactive: 0.013

# Quoted at random: 2 records from the list.
row,Target,log2 fold change
14,JTB (UniProt O76095),inactive: -0.037
7,KIAA0319L (UniProt Q8IZA0),inactive: -0.001
